# Experimental data published in patent US10618901B2 (GlaxoSmithKline Intellectual Property Development Limited, priority 2014, dated 2020).
# The chains behind the UniProt entries cited, without tags or fusion partners. Where a name states a change or a piece, a line headed by the entry shows the natural chain unless it says otherwise.
# UniProt Q5S007: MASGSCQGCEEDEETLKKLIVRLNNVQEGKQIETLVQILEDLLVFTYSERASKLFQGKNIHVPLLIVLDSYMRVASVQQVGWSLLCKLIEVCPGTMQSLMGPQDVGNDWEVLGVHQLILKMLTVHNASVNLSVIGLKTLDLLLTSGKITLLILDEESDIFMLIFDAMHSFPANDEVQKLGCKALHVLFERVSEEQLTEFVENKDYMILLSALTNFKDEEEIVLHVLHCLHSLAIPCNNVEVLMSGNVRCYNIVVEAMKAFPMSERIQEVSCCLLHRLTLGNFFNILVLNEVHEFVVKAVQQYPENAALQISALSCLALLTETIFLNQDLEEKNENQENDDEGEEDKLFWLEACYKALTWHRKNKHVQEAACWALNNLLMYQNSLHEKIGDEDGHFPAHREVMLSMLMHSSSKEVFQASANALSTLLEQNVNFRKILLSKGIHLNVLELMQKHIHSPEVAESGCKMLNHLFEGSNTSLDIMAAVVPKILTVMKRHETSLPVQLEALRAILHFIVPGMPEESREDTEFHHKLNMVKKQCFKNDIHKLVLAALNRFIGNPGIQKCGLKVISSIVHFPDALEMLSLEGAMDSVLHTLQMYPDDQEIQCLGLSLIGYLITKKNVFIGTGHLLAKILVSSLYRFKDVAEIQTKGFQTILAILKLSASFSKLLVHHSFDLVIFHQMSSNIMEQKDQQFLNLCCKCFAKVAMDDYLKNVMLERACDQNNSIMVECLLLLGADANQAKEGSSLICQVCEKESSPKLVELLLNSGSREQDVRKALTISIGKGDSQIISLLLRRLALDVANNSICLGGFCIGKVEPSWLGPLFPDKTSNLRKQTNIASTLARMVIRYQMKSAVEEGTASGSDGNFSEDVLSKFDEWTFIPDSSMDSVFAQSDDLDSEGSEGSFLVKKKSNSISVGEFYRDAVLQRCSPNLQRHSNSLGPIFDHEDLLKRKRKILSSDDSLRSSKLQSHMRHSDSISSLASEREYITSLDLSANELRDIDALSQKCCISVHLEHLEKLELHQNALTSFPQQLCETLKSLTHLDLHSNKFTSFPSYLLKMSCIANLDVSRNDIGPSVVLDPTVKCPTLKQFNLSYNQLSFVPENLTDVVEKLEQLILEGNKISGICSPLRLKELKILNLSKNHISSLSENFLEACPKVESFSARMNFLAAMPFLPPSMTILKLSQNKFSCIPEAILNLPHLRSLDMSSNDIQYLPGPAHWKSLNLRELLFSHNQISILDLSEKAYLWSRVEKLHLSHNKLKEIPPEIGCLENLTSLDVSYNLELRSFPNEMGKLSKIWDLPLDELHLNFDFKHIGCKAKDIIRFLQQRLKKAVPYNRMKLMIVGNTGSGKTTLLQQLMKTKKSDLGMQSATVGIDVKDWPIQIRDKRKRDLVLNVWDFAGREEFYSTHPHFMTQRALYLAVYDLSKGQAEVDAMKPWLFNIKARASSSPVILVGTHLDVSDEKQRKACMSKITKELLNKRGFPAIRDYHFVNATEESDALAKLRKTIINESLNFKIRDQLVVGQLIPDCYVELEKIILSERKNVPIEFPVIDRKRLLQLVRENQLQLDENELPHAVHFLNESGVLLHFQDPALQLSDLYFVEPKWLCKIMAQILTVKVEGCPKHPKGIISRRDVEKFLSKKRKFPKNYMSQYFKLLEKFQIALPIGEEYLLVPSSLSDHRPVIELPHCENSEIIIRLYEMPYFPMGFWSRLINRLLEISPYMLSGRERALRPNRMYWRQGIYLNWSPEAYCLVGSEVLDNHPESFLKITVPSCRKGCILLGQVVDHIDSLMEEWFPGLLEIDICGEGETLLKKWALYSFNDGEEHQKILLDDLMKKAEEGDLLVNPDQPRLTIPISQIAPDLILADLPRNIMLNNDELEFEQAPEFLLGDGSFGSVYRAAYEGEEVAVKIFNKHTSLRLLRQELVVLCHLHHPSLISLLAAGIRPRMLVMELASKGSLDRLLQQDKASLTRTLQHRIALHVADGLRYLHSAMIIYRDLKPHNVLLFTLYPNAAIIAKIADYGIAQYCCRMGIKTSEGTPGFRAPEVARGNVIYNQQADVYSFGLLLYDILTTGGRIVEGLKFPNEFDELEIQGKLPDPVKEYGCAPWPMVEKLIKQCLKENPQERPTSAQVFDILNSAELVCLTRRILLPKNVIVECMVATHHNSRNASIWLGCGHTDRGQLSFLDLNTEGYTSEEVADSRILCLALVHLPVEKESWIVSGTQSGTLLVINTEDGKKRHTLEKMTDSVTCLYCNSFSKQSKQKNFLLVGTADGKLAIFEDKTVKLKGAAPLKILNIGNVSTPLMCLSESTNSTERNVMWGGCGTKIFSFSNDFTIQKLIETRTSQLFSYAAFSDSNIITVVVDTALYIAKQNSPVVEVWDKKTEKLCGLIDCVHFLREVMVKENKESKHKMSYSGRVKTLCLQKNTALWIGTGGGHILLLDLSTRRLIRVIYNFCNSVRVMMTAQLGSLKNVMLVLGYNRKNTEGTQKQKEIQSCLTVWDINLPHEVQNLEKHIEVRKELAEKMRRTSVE
# Read-outs that look alike come from different tables or passages of the source. Some results were stated once for a whole list of compounds, not compound by compound.
# Target: T1, LRRK2 Ser935 phosphorylation in SH-SY5Y cells over-expressing recombinant full length LRRK2 (Homo sapiens, UniProt Q5S007)
# T1 construct: A BacMam virus expressing full length recombinant LRRK2 was purchased from Invitrogen; host or cells: SH-SY5Y (BacMam transduction)
# Assay: Recombinant cellular LRRK2 AlphaScreen assay
# Format: cell-based
# From the text: Recombinant Cellular LRRK2 AlphaScreen Assay
# To determine the activity of compounds against LRRK2 kinase activity in cells, the observed LRRK2 kinase-dependent modulation of LRRK2 Ser 935 phosphorylation (Dzamko et al., 2010, Biochem. J. 430: 405-413) was utilized to develop a quantitative 384 well plate-based immunoassay of LRRK2 Ser935 phosphorylation in the human neuroblastoma cell line SH-SY5Y, engineered to over-express recombinant full length LRRK2 protein.
# A BacMam virus expressing full length recombinant LRRK2 was purchased from Invitrogen and amplified by inoculation of SF-9 cells at MOI 0.3 for 4-5 days in Sf-900 III SFM medium supplemented with 3% fetal bovine serum. Infected cell cultures were then centrifuged at 2000 g for 20 minutes, viral supernatant titer determined by anti-gp64 plaque assay and stored at 4° C.
# Affinity-purified anti-phospho LRRK2 Ser935 sheep polyclonal antibody (Dzamko et al., 2010, Biochem. J. 430: 405-413) was biotinylated by standard methods (PerkinElmer). Anti-LRRK2 rabbit polyclonal antibody was purchased from Novus Biologicals. AlphaScreen Protein A IgG Kit (including acceptor and donor beads) was purchased from Perkin Elmer.
# SH-SY5Y cells were grown in DMEM/F12 medium with 10% dialysed fetal bovine serum and harvested by treatment with 0.5% trypsin-EDTA for 5 minutes at 37° C. followed by centrifugation at 1000 rpm for 4 minutes. The cell pellet was resuspended in Opti-MEM reduced serum media (Invitrogen) at 200,000 cells/ml and mixed with the BacMam LRRK2 virus at M01=50. 50 μl cell solutions were then dispensed to each well of a 384-well plate and incubated at 37° C., 5% CO2 for 24 hours.
# Serial dilutions of test compounds were prepared in Opti-MEM reduced serum media (Invitrogen) and 5.6 ul transferred from compound plate to cell assay plate to achieve a top final assay concentration of 10 uM. DMSO was used in certain wells as controls. Cells were incubated at 37° C., 5% CO2 for 60 minutes. The medium was then removed and cells lysed by addition of 20 ul cell lysis buffer (Cell Signaling Technology) and incubation at 4° C. for 20 minutes. 10 ul of antibody/acceptor bead mix [(1/1000 biotinylated-pS935 LRRK2 antibody, 1/1000 total-LRRK2 antibody, 1/100 Acceptor beads in AlphaScreen detection buffer (25 mM Hepes (pH 7.4), 0.5% Triton X-100, 1 mg/ml Dextran 500 and 0.1% BSA)] was then added to each well and plates incubated for 2 hours at ambient temperature in the dark. 10 μl of donor beads solution (1/33.3 donor beads in AlphaScreen detection buffer) was then added to each well. Following incubation for a further 2 hours at ambient temperature in the dark, plates were read on an EnVision™ plate reader at emission 520-620 nm with excitation 680 nm. Dose response curve data was based on sigmoidal dose-response model.
molecule,measurement,setting,value
"CCOc1nc(Nc2cnn(C3CNCCC3(F)F)c2Cl)nc2[nH]ccc12 (single isomer, unassigned) [Example E126, N-(5-chloro-1-(4,4-difluoropiperidin-3-yl)-1H-pyrazol-4-yl)-4-ethoxy-7H-pyrrolo [2,3-d] pyrimidin-2-amine]",pIC50 in the recombinant cellular LRRK2 alphaScreen assay,"text statement, listed as Example E126",≥ 5.0
"CCOc1nc(Nc2cn(CCOC)nc2C)nc2[nH]ccc12 [Example E8, 4-ethoxy-N-(1-(2-methoxyethyl)-3-methyl-1H-pyrazol-4-yl)-7H-pyrrolo-[2,3-d]-pyrimidin-2-amine]",pIC50 in the recombinant cellular LRRK2 alphaScreen assay,,≥ 5.0
"CCOc1nc(Nc2cnn(CCN3CCO[C@@H](C(F)F)C3)c2C)nc2[nH]ccc12 [Example E99, (R)—N-(1-(2-(2-(difluoromethyl)morpholino)ethyl)-5-methyl-1H-pyrazol-4-yl)-4-ethoxy-7H-pyrrolo[2,3-d]pyrimidin-2-amine]",pIC50 in the recombinant cellular LRRK2 alphaScreen assay,,≥ 5.0
"CCOc1nc(Nc2cnn(C3CCC(N4CCOCC4)C3)c2Cl)nc2[nH]ccc12 (single isomer, unassigned) [Example E110, (trans)-N-(5-chloro-1-(3-morpholinocyclopentyl)-1H-pyrazol-4-yl)-4-ethoxy-7H-pyrrolo [2,3-d]pyrimidin-2-amine]",pIC50 in the recombinant cellular LRRK2 alphaScreen assay,"text statement, listed as Example E110",≥ 5.0
"CCOc1nc(Nc2cnn(C3CCOCC3)c2C)nc2[nH]cc(C#N)c12 [Example E46, 4-ethoxy-2-((5-methyl-1-(tetrahydro-2H-pyran-4-yl)-1H-pyrazol-4-yl)-amino)-7H-pyrrolo-[2,3-d]-pyrimidine-5-carbonitrile]",pIC50 in the recombinant cellular LRRK2 alphaScreen assay,,≥ 5.0
"CCOc1nc(Nc2cnn(C3CCOCC3)c2C2CC2)nc2[nH]ccc12 [Example E44, N-(5-cyclopropyl-1-(tetrahydro-2H-pyran-4-yl)-1H-pyrazol-4-yl)-4-ethoxy-7H-pyrrolo-[2,3-d]pyrimidin-2-amine]",pIC50 in the recombinant cellular LRRK2 alphaScreen assay,,≥ 5.0
"CCOc1nc(Nc2cnn(C3CCOC3)c2C)nc2[nH]ccc12 (single isomer, unassigned) [Example E16, 4-ethoxy-N-(5-methyl-1-(tetrahydrofuran-3-yl)-1H-pyrazol-4-yl)-7H-pyrrolo-[2,3-d]-pyrimidin-2-amine]",pIC50 in the recombinant cellular LRRK2 alphaScreen assay,"text statement, listed as Example E16",≥ 5.0
"CCOc1nc(Nc2cnn(C3CCN(C4COC4)C3)c2C)nc2[nH]ccc12 (single isomer, unassigned) [Example E67, 4-ethoxy-N-(5-methyl-1-(1-(oxetan-3-yl)-pyrrolidin-3-yl)-1H-pyrazol-4-yl)-7H-pyrrolo-[2,3-d]pyrimidin-2-amine]",pIC50 in the recombinant cellular LRRK2 alphaScreen assay,,≥ 5.0
"CCOc1nc(Nc2cnn(C3CC(N4CCOCC4)CCC3(F)F)c2Cl)nc2[nH]ccc12 (single isomer, unassigned) [Example E148, trans-N-(5-chloro-1-(2,2-difluoro-5-morpholinocyclohexyl)-1H-pyrazol-4-yl)-4-ethoxy-7H-pyrrolo[2,3-d]pyrimidin-2-amine]",pIC50 in the recombinant cellular LRRK2 alphaScreen assay,"text statement, listed as Example E148",≥ 5.0
"CCOc1nc(Nc2cnn(CCN3CCOC[C@@H]3C)c2C)nc2[nH]ccc12 [Example E82, (S)-4-ethoxy-N-(5-methyl-1-(2-(3-methylmorpholino)ethyl)-1H-pyrazol-4-yl)-7H-pyrrolo [2,3-d]pyrimidin-2-amine]",pIC50 in the recombinant cellular LRRK2 alphaScreen assay,,≥ 5.0
"CCOc1nc(Nc2cnn(CC(C)N3CCOCC3)c2C)nc2[nH]ccc12 (single isomer, unassigned) [Example E92]",pIC50 in the recombinant cellular LRRK2 alphaScreen assay,"text statement, listed as Example E92",≥ 5.0
"CCOc1nc(Nc2cnn(C3CNCCC3(F)F)c2Cl)nc2[nH]ccc12 (single isomer, unassigned) [Example E125, N-(5-chloro-1-(4,4-difluoropiperidin-3-yl)-1H-pyrazol-4-yl)-4-ethoxy-7H-pyrrolo [2,3-d] pyrimidin-2-amine]",pIC50 in the recombinant cellular LRRK2 alphaScreen assay,"text statement, listed as Example E125",≥ 5.0
"cis-3-(4-((4-ethoxy-7H-pyrrolo[2,3-d]pyrimidin-2-yl)amino)-5-methyl-1H-pyrazol-1-yl)cyclopentanol [Example E56]",pIC50 in the recombinant cellular LRRK2 alphaScreen assay,"text statement, listed as Example E56",≥ 5.0
"CCOc1nc(Nc2cnn(C3CCN(C4COC4)CC3(F)F)c2Cl)nc2[nH]ccc12 (single isomer, unassigned) [Example E133, N-(5-chloro-1-(3,3-difluoro-1-(oxetan-3-yl)piperidin-4-yl)-1H-pyrazol-4-yl)-4-ethoxy-7H-pyrrolo[2,3-d]pyrimidin-2-amine]",pIC50 in the recombinant cellular LRRK2 alphaScreen assay,"text statement, listed as Example E133",≥ 5.0
"trans-4-ethoxy-N-(1-(3-fluoro-1-methylpiperidin-4-yl)-1H-pyrazol-4-yl)-7H-pyrrolo[2,3-d]pyrimidin-2-amine [Example E75]",pIC50 in the recombinant cellular LRRK2 alphaScreen assay,text statement,≥ 7.0
same,pIC50 in the recombinant cellular LRRK2 alphaScreen assay,"text statement, listed as Example E75",≥ 5.0
"CCOc1nc(Nc2cnn(C3CC(N4CCOCC4)CCC3(F)F)c2Cl)nc2[nH]ccc12 (racemic) [Example E145, (±)-trans-N-(5-chloro-1-(2,2-difluoro-5-morpholinocyclohexyl)-1H-pyrazol-4-yl)-4-ethoxy-7H-pyrrolo[2,3-d]pyrimidin-2-amine]",pIC50 in the recombinant cellular LRRK2 alphaScreen assay,"text statement, listed as Example E145",≥ 5.0
"trans-4-ethoxy-N-(1-(3-fluoro-1-methylpiperidin-4-yl)-5-methyl-1H-pyrazol-4-yl)-7H-pyrrolo[2,3-d]pyrimidin-2-amine [Example E73]",pIC50 in the recombinant cellular LRRK2 alphaScreen assay,text statement,≥ 7.0
same,pIC50 in the recombinant cellular LRRK2 alphaScreen assay,"text statement, listed as Example E73",≥ 5.0
"trans-3-(4-((4-ethoxy-7H-pyrrolo[2,3-d]pyrimidin-2-yl)amino)-5-methyl-1H-pyrazol-1-yl)cyclopentanol [Example E57]",pIC50 in the recombinant cellular LRRK2 alphaScreen assay,text statement,≥ 7.0
same,pIC50 in the recombinant cellular LRRK2 alphaScreen assay,"text statement, listed as Example E57",≥ 5.0
"CCOc1nc(Nc2cnn(CCN3CCO[C@H](C)C3)c2C)nc2[nH]ccc12 [Example E83, (R)-4-ethoxy-N-(5-methyl-1-(2-(2-methylmorpholino)ethyl)-1H-pyrazol-4-yl)-7H-pyrrolo [2,3-d]pyrimidin-2-amine]",pIC50 in the recombinant cellular LRRK2 alphaScreen assay,,≥ 5.0
"CCOc1nc(Nc2cnn(CCN3CCOC[C@H]3C)c2C)nc2[nH]ccc12 [Example E81, (R)-4-ethoxy-N-(5-methyl-1-(2-(3-methylmorpholino)ethyl)-1H-pyrazol-4-yl)-7H-pyrrolo [2,3-d]pyrimidin-2-amine]",pIC50 in the recombinant cellular LRRK2 alphaScreen assay,,≥ 5.0
"CCOc1nc(Nc2cnn(C3CCN(C4COC4)CC3F)c2CC)nc2[nH]ccc12 (single isomer, unassigned) [Example E130, (trans)-4-ethoxy-N-(5-ethyl-1-(3-fluoro-1-(oxetan-3-yl)piperidin-4-yl)-1H-pyrazol-4-yl)-7H-pyrrolo[2,3-d]pyrimidin-2-amine]",pIC50 in the recombinant cellular LRRK2 alphaScreen assay,"text statement, listed as Example E130",≥ 5.0
"CCOc1nc(Nc2cnn(C3CCC(N4CCOCC4)C3)c2Cl)nc2[nH]ccc12 (stereo not drawn) [Example E112, (cis)-N-(5-chloro-1-(3-morpholinocyclopentyl)-1H-pyrazol-4-yl)-4-ethoxy-7H-pyrrolo[2,3-d] pyrimidin-2-amine]",pIC50 in the recombinant cellular LRRK2 alphaScreen assay,text statement,≥ 5.0
"cis-3-(4-((4-ethoxy-7H-pyrrolo[2,3-d]pyrimidin-2-yl)amino)-5-methyl-1H-pyrazol-1-yl)cyclopentanol [Example E55]",pIC50 in the recombinant cellular LRRK2 alphaScreen assay,text statement,≥ 7.0
same,pIC50 in the recombinant cellular LRRK2 alphaScreen assay,"text statement, listed as Example E55",≥ 5.0
"CCOc1nc(Nc2cn(CCOC)nc2C)nc2[nH]cc(C#N)c12 [Example E48, 4-ethoxy-2-((1-(2-methoxyethyl)-3-methyl-1H-pyrazol-4-yl)-amino)-7H-pyrrolo-[2,3-d]-pyrimidine-5-carbonitrile]",pIC50 in the recombinant cellular LRRK2 alphaScreen assay,,≥ 5.0
"Cc1c(Nc2nc(OCC3CC3)c3cn[nH]c3n2)cnn1CC(C)(C)O [Example E24, 1-(4-((4-(cyclopropylmethoxy)-1H-pyrazolo-[3,4-d]-pyrimidin-6-yl)amino)-5-methyl-1H-pyrazol-1-yl)-2-methylpropan-2-ol]",pIC50 in the recombinant cellular LRRK2 alphaScreen assay,text statement,≥ 5.0
